These results are taken from the supplement of paper PMC5949888.

Most values lie at the floor of the assay. Slopes are relative: functional sequences can read slightly below zero. Bounds are passed on as bounds.

This data set concerns Saccharomyces cerevisiae PS128 hsf1 delta, HSF1(1-493) fusion. In words: growth estimate (transactivation domain function in HSF1 fusion, heat-shock survival) (a.u. (slope of normalised read count over time)); higher = stronger growth at 37°C, i.e. more transactivation activity. As to conditions: library: random library. How it is done:
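Random 60-nt DNA library encoding peptides of up to 20 aa, fused to the C-terminus of yeast HSF1 residues 1-493 (C-terminal TAD deleted) and expressed from the native HSF1 promoter on a CEN plasmid in hsf1-deleted S. cerevisiae PS128. Cells were selected at 37°C on -trp 5-FOA plates for 0, 2, 4, 6 and 8 days and amplicons were sequenced. Growth estimate is the slope of a robust linear fit of total-sum-normalised read counts (normalised to the first time point) over time, using at least 2 replicates. Sequences are classed functional (TAD activity) above a threshold of -0.13, set from stop-codon control sequences.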
In the case of MRQNDIRGPFVVRPVGIPYR, the growth estimate was under -0.25. For the substance GSRSGYPQESFRRAGRMVQV, the growth estimate was under -0.25. In the case of ASDHALGAQKGRDIMNYAKH, the growth estimate is under -0.25.

RPTEIELARCGPSAYPRMRA: the growth estimate is under -0.25. With FGVLLLFELEVRERRHYRGP, the growth estimate was under -0.25. Take SCPGTVELYESRESYGASAL: the growth estimate was under -0.25. NLAALVGGTGGFYSVAGDEA: the growth estimate is under -0.25. On to HNRVIEA, for which the growth estimate was under -0.25. Turning to KVIMILEASYECLASGSDSM, the growth estimate was under -0.25. Consider WTREVTRTGQSRAWVQSIAQ, for which the growth estimate is under -0.25. MCPINLKGTCVLTCRKLWRA: the growth estimate was under -0.25.

As to LTFYVSDTFNGV, the growth estimate is under -0.25. For RSRCRQRTRWTEIPRETCLM, the growth estimate was under -0.25.

In the case of GDLVLVGYGRLTAPWAEWHY, the growth estimate is under -0.25.

For DWGAEDSKLQRLKSSGTFCR, the growth estimate is under -0.25. As for AGTVSSCNVTPRPP, the growth estimate is under -0.25. For TESGMRQGMGVFTVAIASGV, the growth estimate was under -0.25. GSDRPLFRSCDCPPPVYH: the growth estimate is under -0.25. On to AFTRVEEY, for which the growth estimate was under -0.25.

In the case of GGLCPDKDRGESYNGCGEYY, the growth estimate was under -0.25. Turning to HLFLCERDFGKVGNLQSQPS, the growth estimate was under -0.25. Turning to FITYVQSLCLRTTMNDGNET, the growth estimate was under -0.25.

On to LPRSRCYWECTRPGKICEEG, for which the growth estimate is under -0.25. Regarding PAV, the growth estimate is under -0.25. For SPGTSNVSVVLPA, the growth estimate is under -0.25. The result for TYSLLFASLSVPYLRGTKGR reads under -0.25; that for PVGQMHRILTSGPGCLYAVS, under -0.25. Consider LSYPESYPAVALAAVRRGVL, for which the growth estimate was under -0.25.

Turning to YVGILSGSHRWVTVGQVELQ, the growth estimate is -0.246. In the case of TTQHATVQGELLSTVPGWMC, the growth estimate was under -0.25. In the case of PLSPPCCTSLLNENIEFWLL, the growth estimate was 48.3. As to FSSGKWGLCRRHGFSRMVCS, the growth estimate was under -0.25. On to TQPRQSGRLGLIWDRVSGGD, for which the growth estimate was under -0.25. The result for GPGRTFGRPLSGGMG reads under -0.25; that for KGPSLCVPGLLPPVQLGKWN, under -0.25; that for RPSSLILGYKYTVYALTTDT, under -0.25.

Take LGQLNLRPRVCC: the growth estimate is under -0.25. For YRL, the growth estimate was under -0.25. Turning to RLPWTRCTEERGNSR, the growth estimate is under -0.25.

On to SPAAFRPRRYG, for which the growth estimate is under -0.25. Take VLVLVLRNDTGKYGGSILMQ: the growth estimate is under -0.25.

As to MGIEVTTVLDIPQSLC, the growth estimate is under -0.25. For the substance LDGP, the growth estimate is under -0.25. For SRVRLRGCGNTASRSGHDR the value was -0.172; for DSRG, under -0.25; for VVLEFLGSSNCF, under -0.25.

For the substance FVGTWAGPRPIVEPSICSDC, the growth estimate was under -0.25. For ISLNVAVLGTGRCVRDMTSI the value was under -0.25; for GPAGHADTVPL, under -0.25; for TPNRLTG, under -0.25. Take VQAWPLPPGGTLP: the growth estimate is under -0.25. For TFFNELSCGNVPHTTKDVDE the value was under -0.25. With WFIHARKRPIADAVLTGQPT, the growth estimate was under -0.25. For TAHPPHERNVTAQARTSRRE the value was under -0.25; for GLDQGAKEGIHHFHRG, under -0.25; for CSLAGAGT, under -0.25. On to LVLPVRGALGNGGWSKLSTI, for which the growth estimate was -0.245. For PGTTYEWNSRGMRGGNAFRQ the value was -0.236; for AATHGLNPMVWT, under -0.25; for FTWDG, under -0.25. In the case of DQERQRQSEAREGHCGRRSD, the growth estimate was under -0.25. Consider LSHNSREAHL, for which the growth estimate is under -0.25.

Consider MFARSPQGARDQGVEVHRDR, for which the growth estimate is under -0.25.

For TSLTFILS, the growth estimate is under -0.25.

As for YLEEGFT, the growth estimate was under -0.25. RSARRFQAA: the growth estimate was under -0.25. For LCL, the growth estimate is under -0.25. Consider LRQDGDFCSQFSYGRAVIII, for which the growth estimate is under -0.25. As for DSVQTICVVDVGSVS, the growth estimate was under -0.25. The result for LVLENALFILPV reads under -0.25; that for TEIGHGRLPADDKAPQACLG, under -0.25. Regarding PIYADCVG, the growth estimate is -0.191.

For the substance GKVVAD, the growth estimate was under -0.25.

For FKRLSLG, the growth estimate is under -0.25.

Regarding DTWIIGSLHMLV, the growth estimate was under -0.25.
